Results from PubChem BioAssay AID282 (DTP/NCI, 2004).
The list shows only some results of the screen, not a fair sample: it gathers tests that were run many times, whatever their T/C, doses with no T/C, and many T/C values between a quarter and a half above the control. Other doses and runs of a compound stand elsewhere. T/C gives the treated animals as a percentage of the vehicle group. Some entries give survivors of the animals treated and no T/C: the source files T/C as zero there, which appears to mark a toxic dose or a test without result, not a measured value. Some doses without a T/C left all or most animals alive at the check, yet need not have been tolerated: survival well below the control is almost never listed, so the zero probably covers shortened survival too. Survivors were counted at the toxicity check, usually on the fifth day, unless a day is given; later deaths do not show. Schedule codes are those of the source, taken here to give the interval after Q, in days (D) or hours (H), and the number of doses after X. Some entries hold several experiments; the values are given in rising order. Some schedule codes hold Z or #, which are not explained here. Where survival is the endpoint, the PubChem record calls one and a half times the control and up active, and a quarter to a half above the control has no call in these data; cut-offs in other NCI protocols can differ. Some T/C values carry the count of animals alive at the toxicity check (mostly the fifth day); without a count, all were alive then.

Test system: BDF1 mice, L1210 terephthalanilide-resistant leukemia ip, survival T/C
Test: NCI In Vivo Anticancer Drug Screen. Data for tumor model L1210 Leukemia resistant to A Terephthalanilide; NSC 38280 (intraperitoneal) in B6D2F1 (BDF1) mice
Settings: T/C endpoint: mean survival time, higher T/C = longer survival
Protocol: The antitumor activity of compounds was measured in mice bearing transplantable tumors. Survival or tumor size were measured and the results are expressed as the measurement made in the treated group (T) divided by the measurement made in the vehicle treated control group (C). The tumor model used in this assay is L1210 Leukemia resistant to A Terephthalanilide; NSC 38280 (intraperitoneal) in B6D2F1 (BDF1) mice

[1] = dose: 2.5 mg/kg/injection, schedule: Q01DX Z (ip), vehicle: carboxymethylcellulose (CMC)
[2] = dose: 5.0 mg/kg/injection, schedule: Q01DX Z (ip), vehicle: carboxymethylcellulose (CMC)
[3] = dose: 50.0 mg/kg/injection, schedule: Q01DX Z (ip), vehicle: carboxymethylcellulose (CMC)
[4] = dose: 80.0 mg/kg/injection, schedule: Q01DX010 (ip), vehicle: saline
[5] = dose: 25.0 mg/kg/injection, schedule: Q01DX Z (ip), vehicle: carboxymethylcellulose (CMC)
[6] = dose: 40.0 mg/kg/injection, schedule: Q01DX010 (ip), vehicle: saline
[7] = dose: 75.0 mg/kg/injection, schedule: Q01DX Z (ip), vehicle: carboxymethylcellulose (CMC)
[8] = dose: 0.5 mg/kg/injection, schedule: Q01DX010 (ip), vehicle: saline
[9] = dose: 200.0 mg/kg/injection, schedule: Q01DX010 (sc), vehicle: steroid suspending solution

Compound: O=c1[nH]cc(F)c(=O)[nH]1
- T/C [1]: 125 and 139 % of control
- T/C (dose: 3.0 mg/kg/injection, schedule: Q01DX Z (ip), vehicle: carboxymethylcellulose (CMC)): 129 % of control
- T/C (dose: 5.0 mg/kg/injection, schedule: Q01DX010 (ip), vehicle: saline): 127 % of control
- T/C [2]: 138 and 145 % of control
- T/C (dose: 10.0 mg/kg/injection, schedule: Q01DX010 (ip), vehicle: saline): 145 % of control
- T/C [3]: 130 % of control
- survivor count (dose: 150.0 mg/kg/injection, schedule: Q01DX Z (ip), vehicle: carboxymethylcellulose (CMC)): 6 of 6

Compound: O=c1c(O)cccc2cc(O)c(O)c(O)c12
- survivor count (dose: 200.0 mg/kg/injection, schedule: Q01DX010 (ip), vehicle: saline): 6 of 6

Compound: CC1CCOS(=O)O1 (stereo not given)
- survivor count [4]: 6 of 6

Compound: Cc1cc(N(CCCl)CCCl)ccc1N=Nc1ccccc1C(=O)O
- T/C (dose: 4.0 mg/kg/injection, schedule: Q01DX Z (ip), vehicle: carboxymethylcellulose (CMC)): 131 % of control
- T/C (dose: 6.25 mg/kg/injection, schedule: Q01DX Z (ip), vehicle: carboxymethylcellulose (CMC)): 141 % of control
- T/C (dose: 12.5 mg/kg/injection, schedule: Q01DX Z (ip), vehicle: carboxymethylcellulose (CMC)): 128 and 138 % of control
- T/C [5]: 129 % of control
- survivor count [6]: 6 of 6
- survivor count [7]: 4 of 6
- survivor count (dose: 100.0 mg/kg/injection, schedule: Q01DX Z (ip), vehicle: carboxymethylcellulose (CMC)): 0 of 6

Compound: CS(=O)(=O)OCCN(CCOS(C)(=O)=O)c1ccc(N=O)cc1
- survivor count (dose: 4.0 mg/kg/injection, schedule: Q01DX010 (ip), vehicle: saline): 4 of 6
- T/C (dose: 250.0 micrograms/kg/injection, schedule: Q01DX010 (ip), vehicle: saline): 135 % of control
- T/C (dose: 500.0 micrograms/kg/injection, schedule: Q01DX010 (ip), vehicle: saline): 133 % of control

Compound: CC[C@]1(O)C[C@H]2CN(CCc3c([nH]c4ccccc34)[C@@](C(=O)OC)(c3cc4c(cc3OC)N(C=O)[C@H]3[C@@](O)(C(=O)OC)[C@H](OC(C)=O)[C@]5(CC)C=CCN6CC[C@]43[C@@H]65)C2)C1
- T/C (dose: 0.03 mg/kg/injection, schedule: Q01DX010 (ip), vehicle: saline): 106, 120, 121, 129 % of control
- T/C (dose: 0.06 mg/kg/injection, schedule: Q01DX010 (ip), vehicle: saline): 108, 118, 120, 127 % of control
- T/C (dose: 0.12 mg/kg/injection, schedule: Q01DX010 (ip), vehicle: saline): 116, 118, 123, 144 % of control
- T/C (dose: 0.25 mg/kg/injection, schedule: Q01DX010 (ip), vehicle: saline): 106, 109, 110, 137 % of control
- T/C [8]: 98 % of control
- survivor count [8]: 5 of 6 and 6 of 6

Compound: CN=C(NC)c1ccc(NC(=O)Nc2ccc(NC(=O)Nc3ccc(C(=NC)NC)cc3)cc2)cc1
- survivor count (dose: 30.0 mg/kg/injection, schedule: Q01DX010 (ip), vehicle: saline): 6 of 6
- survivor count (dose: 45.0 mg/kg/injection, schedule: Q01DX010 (ip), vehicle: saline): 4 of 6

Compound: O=c1[nH]c(=O)n(C2CC(O)C(CO)O2)cc1Br (stereo not given)
- T/C (dose: 125.0 mg/kg/injection, schedule: Q01DX Z (ip), vehicle: carboxymethylcellulose (CMC)): 126 % of control
- T/C (dose: 250.0 mg/kg/injection, schedule: Q01DX Z (ip), vehicle: carboxymethylcellulose (CMC)): 128 % of control

Compound: CS(=O)(=O)OCC(O)C(O)COS(C)(=O)=O (stereo not given)
- survivor count (dose: 100.0 mg/kg/injection, schedule: Q01DX010 (ip), vehicle: saline): 6 of 6
- T/C (dose: 187.0 mg/kg/injection, schedule: Q01DX Z (ip), vehicle: carboxymethylcellulose (CMC)): 135 % of control
- T/C (dose: 500.0 mg/kg/injection, schedule: Q01DX Z (ip), vehicle: carboxymethylcellulose (CMC)): 129 % of control

Compound: CCN(CC)c1ccc2cc3ccc(=[N+](CC)CC)cc-3oc2c1
- survivor count (dose: 8.0 mg/kg/injection, schedule: Q01DX010 (ip), vehicle: saline): 4 of 6

Compound: CS(=O)(=O)OCCCl
- survivor count (dose: 150.0 mg/kg/injection, schedule: Q01DX010 (ip), vehicle: saline): 6 of 6
- survivor count (dose: 350.0 mg/kg/injection, schedule: Q01DX Z (ip), vehicle: saline): 0 of 6

Compound: C[C@]12C=CC(=O)C=C1CC[C@@H]1[C@@H]2C(=O)C[C@@]2(C)[C@H]1CC[C@]2(O)C(=O)CO
- T/C (dose: 12.5 mg/kg/injection, schedule: Q01DX010 (sc), vehicle: steroid suspending solution): 96, 100, 101, 108 % of control
- T/C (dose: 25.0 mg/kg/injection, schedule: Q01DX010 (sc), vehicle: steroid suspending solution): 95, 96, 101, 104 % of control
- T/C (dose: 50.0 mg/kg/injection, schedule: Q01DX010 (sc), vehicle: steroid suspending solution): 95, 101, 105, 109 % of control
- T/C (dose: 100.0 mg/kg/injection, schedule: Q01DX010 (sc), vehicle: steroid suspending solution): 91 [5 of 6 alive], 96, 98, 100 % of control
- T/C [9]: 96 and 102 % of control
- survivor count [9]: 6 of 6

Compound: O=C(Nc1cccc(C(=O)Nc2ccc(C3=NCCN3)cc2)c1)c1ccc(C2=NCCN2)cc1
- survivor count [4]: 1 of 6
- survivor count (dose: 120.0 mg/kg/injection, schedule: Q01DX010 (ip), vehicle: saline): 0 of 6
- survivor count (dose: 180.0 mg/kg/injection, schedule: Q01DX010 (ip), vehicle: saline): 0 of 6

Compound: CN(C)c1ccc(/C=C\c2ccnc3ccccc23)cc1
- survivor count [6]: 6 of 6
- survivor count (dose: 60.0 mg/kg/injection, schedule: Q01DX010 (ip), vehicle: saline): 5 of 6
- survivor count [7]: 6 of 6

Compound: C[C@H](N)C(=O)N[C@@H]1[C@H]2C(=C(O)C[C@@H](O)[C@@H]2O)C(=O)O[C@@H]1C
- T/C (dose: 187.0 mg/kg/injection, schedule: Q01DX Z (ip), vehicle: saline): 135 % of control

Compound: O=C(O)CCCc1ccc(N(CCCl)CCCl)cc1
- T/C (dose: 3.13 mg/kg/injection, schedule: Q01DX010 (ip), vehicle: saline): 97, 99, 102, 108 % of control
- T/C (dose: 6.25 mg/kg/injection, schedule: Q01DX010 (ip), vehicle: saline): 90, 95, 103, 110 % of control
- T/C (dose: 12.5 mg/kg/injection, schedule: Q01DX010 (ip), vehicle: saline): 108, 111, 113, 115 % of control
- survivor count (dose: 25.0 mg/kg/injection, schedule: Q01DX010 (ip), vehicle: saline): 2 of 6, 4 of 6, 5 of 6
- survivor count [5]: 4 of 6
- survivor count [3]: 2 of 6

Compound: Nc1nc(=S)c2[nH]cnc2[nH]1
- T/C (dose: 0.25 mg/kg/injection, schedule: Q01DX Z (ip), vehicle: carboxymethylcellulose (CMC)): 140 % of control
- T/C (dose: 0.5 mg/kg/injection, schedule: Q01DX Z (ip), vehicle: carboxymethylcellulose (CMC)): 128 % of control
- T/C (dose: 1.25 mg/kg/injection, schedule: Q01DX010 (ip), vehicle: saline): 136 % of control
- T/C (dose: 1.25 mg/kg/injection, schedule: Q01DX Z (ip), vehicle: carboxymethylcellulose (CMC)): 140 % of control
- T/C (dose: 2.5 mg/kg/injection, schedule: Q01DX010 (ip), vehicle: saline): 144 % of control [5 of 6 alive]
- T/C [1]: 128 % of control
- T/C [2]: 148 % of control
- survivor count (dose: 35.0 mg/kg/injection, schedule: Q01DX Z (ip), vehicle: carboxymethylcellulose (CMC)): 5 of 6
- survivor count (dose: 60.0 mg/kg/injection, schedule: Q01DX Z (ip), vehicle: carboxymethylcellulose (CMC)): 4 of 6
- T/C (dose: 62.0 micrograms/kg/injection, schedule: Q01DX Z (ip), vehicle: carboxymethylcellulose (CMC)): 125 % of control
- T/C (dose: 250.0 micrograms/kg/injection, schedule: Q01DX Z (ip), vehicle: carboxymethylcellulose (CMC)): 125 % of control
